# PubChem BioAssay AID2685 (National Center for Advancing Translational Sciences (NCATS), 2010)
# Some of the results follow. These are further read-outs of the screen, such as a control signal, another cell line or another target. No call is given for them. The list favours compounds with an active or inconclusive main result. Words in brackets tell the shape of the fitted curve; partial curves, single points and poor fits give uncertain potencies.
# Assay: qHTS Assay for Lipid Storage Modulators in Drosophila S3 Cells;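 on cell number change: cells counted by Cell Tracker Red CMTPX staining in the red channel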
# Settings: BODIPY lipid droplet fluorescence, 18-24 h; for cell number change: measured here: cell count max response, cells fed with added oleic acid
# How it was run: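 Drosophila S3 cells loaded with oleic acid (400 uM, as added) and compounds at several concentrations; lipid droplets imaged by 488-nm laser-scanning cytometry, 500–530 nm intensity and object ratio to cell channel. Percent activity normalized to 20 uM Triacsin C.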
# [1] = measured here: cell number channel AC50, cells fed with added oleic acid
# [2] = measured here: lipid fluorescence (Fed channel) AC50, cells fed with added oleic acid
SMILES,cell number change [%],AC50 [1],AC50 [2]
Cc1ccc(C)c(NC(=O)CN(C)C(=O)[C@@H](NC(N)=O)C(C)C)c1,49.9,"29.1 µM [rising, single point]",
COc1cccc(N2CCN(Cc3nc(N)nc(Nc4ccccc4OC)n3)CC2)c1,,"2.06 µM [rising, partial curve]",
CC(=O)c1cccc(NC(=S)NC(=O)c2cccc(Cl)c2)c1,,,"10.3 µM [rising, partial curve]"
C=CCn1c(-c2csc(-c3ccccc3)n2)n[nH]c1=S,,,"0.58 µM [rising, full curve, poor fit]"
CC1(C)CC(=O)c2c(-c3cccnc3)n[nH]c2C1,2,,"0.92 µM [falling, full curve]"
O=C(Nc1cccc2nsnc12)c1cccnc1Cl,-33.3,"29.1 µM [falling, single point]",
Cc1nnc(SCC(=O)Nc2nonc2C)s1,0.952,,
Cc1cc(C)c(NC(=O)CN2C(=O)NC3(CCCCC3)C2=O)c(C)c1,3.28,"6.51 µM [rising, single point]","29.1 µM [rising, single point]"
O=C(CSC1=NCCS1)Nc1ccc(S(=O)(=O)N2CCCCCC2)cc1,-11.6,,
Cc1nc2ccccc2c(=O)n1/N=C/c1ccc(O)cc1O,-7.64,,"1.84 µM [falling, partial curve]"
CC1=NN(c2ccccc2)C(=O)/C1=C\c1ccc(Br)s1,-39.3,"16.4 µM [falling, partial curve]","18.4 µM [falling, partial curve]"
CC(=O)c1c(C)[nH]c(C(=O)/C(C#N)=C/c2cccc(C)c2)c1C,13.4,,"6.51 µM [falling, single point]"
Cc1ccc(CSc2ccc3nnc(-c4cccnc4)n3n2)cc1,-20,,"0.0651 µM [rising, full curve, poor fit]"
COC(c1ccccc1)c1nnc(CCC(=O)NC2CCCCC2)o1 (stereo unspecified),-37.3,"7.31 µM [falling, partial curve, poor fit]","8.2 µM [falling, partial curve, poor fit]"
CCOC(=O)Cc1csc(SCC(=O)NC(C)C23CC4CC(CC(C4)C2)C3)n1 (stereo unspecified),,,"29.1 µM [falling, single point]"
O=C(O)CN(c1ccccc1)S(=O)(=O)c1cc(C(F)(F)F)cc(C(F)(F)F)c1,-29.3,,"29.1 µM [falling, single point]"
CN(CCC#N)C(=O)COC(=O)c1ccc2[nH]c3c(c2c1)CCCC3,-56.1,"10.3 µM [falling, partial curve, poor fit]","10.3 µM [falling, partial curve, poor fit]"
Cc1ccc(C(=O)CSc2nnc3c4ccccc4nc(C(C)(C)C)n23)cc1,28.6,,"2.59 µM [rising, partial curve, poor fit]"
COc1ccc(S(=O)(=O)N(C)CC(=O)NCCCn2ccnc2)cc1Cl,-12.8,"0.0651 µM [falling, full curve, poor fit]",
CC1CCc2c(c3ccccc3[nH]c2=O)O1 (stereo unspecified),84.4,"11.6 µM [rising, partial curve]",
CC(C)CC(=O)NC(=S)NNC(=O)c1ccc(NC(=O)C2CCCCC2)cc1,-7.93,,"29.1 µM [falling, single point]"

# Five of these compounds in a different format.
SMILES | cell number change [%] | AC50 [1] | AC50 [2]
O=C(O)CN(c1ccccc1)S(=O)(=O)c1cc(C(F)(F)F)cc(C(F)(F)F)c1 | -29.3 |  | 29.1 µM [falling, single point]
CN(CCC#N)C(=O)COC(=O)c1ccc2[nH]c3c(c2c1)CCCC3 | -56.1 | 10.3 µM [falling, partial curve, poor fit] | 10.3 µM [falling, partial curve, poor fit]
Cc1ccc(C(=O)CSc2nnc3c4ccccc4nc(C(C)(C)C)n23)cc1 | 28.6 |  | 2.59 µM [rising, partial curve, poor fit]
COc1ccc(S(=O)(=O)N(C)CC(=O)NCCCn2ccnc2)cc1Cl | -12.8 | 0.0651 µM [falling, full curve, poor fit] | 
CC1CCc2c(c3ccccc3[nH]c2=O)O1 (stereo unspecified) | 84.4 | 11.6 µM [rising, partial curve] | 

# The list goes on.

SMILES,cell number change [%],AC50 [1],AC50 [2]
COc1cccc(CNc2nnnn2C)c1OC,11.7,,
O=C(/C=C/c1ccc(-c2ccccc2)cc1)NCc1cccnc1,-2.92,,"0.082 µM [falling, full curve, poor fit]"
CCC1CCCCN1CCCNC(=O)c1ccc2nc(N3CCCCC3)sc2c1 (stereo unspecified),5.03,"0.82 µM [rising, full curve, poor fit]",
COC(=O)c1c(NC(=O)CN(c2ccc(C)c(C)c2)S(C)(=O)=O)sc2c1CCCC2,-17.4,,"20.6 µM [falling, partial curve]"
Cc1cc(=O)[nH]c(N2CCN(C(c3ccccc3)c3ccccc3)CC2)n1,-6.15,,"0.651 µM [falling, full curve, poor fit]"
CCOc1ccccc1CN1C(=O)C2(OCCO2)c2ccccc21,17.6,,
Fc1ccc(C2=CSC3=NCCN23)cc1,-46.4,"29.1 µM [falling, single point]","29.1 µM [falling, single point]"
COCCNC(=O)c1onc(CSc2ccccc2F)c1C(=O)O,-1.12,,
Cc1cccc(NC(=O)CSCC(=O)Nc2ccc(S(=O)(=O)N3CCCC3)cc2)c1,42.3,"5.8 µM [rising, partial curve]","2.06 µM [rising, partial curve]"
COC(=O)c1c(NC(=O)CN2C(=O)C(=O)N(C(C)C)C2=O)sc(C)c1C,17.5,,"11.6 µM [rising, single point]"
CC1CCN(S(=O)(=O)c2ccc(NC(=O)Cn3nnc(-c4ccccc4)n3)cc2)CC1,-54.2,"23.1 µM [falling, single point]","29.1 µM [falling, single point]"
COc1ccc(/C(O)=C(\C#N)c2nc3ccccc3n2C)cc1OC,69.8,"0.00461 µM [rising, full curve, poor fit]","6.51 µM [rising, single point]"
COc1ccc(NC(=S)N/N=C/c2ccc(F)cc2)cc1OC,,,"0.651 µM [falling, single point]"
Cn1c(=O)oc2cc(S(=O)(=O)CCC(=O)N3CCN(c4ccccc4F)CC3)ccc21,-4.28,,"7.31 µM [falling, single point]"
CC12C(=O)N(c3cccc4cccnc34)C(=O)C1C1C=CC2C1 (stereo unspecified),26.8,,"20.6 µM [rising, single point]"
O=C(Nc1ccc(Cc2ccncc2)cc1)c1ccc(Cl)c([N+](=O)[O-])c1,-11.4,,
CCC(=O)N1CC23C=CC(CC2CC12CCCCC2)O3 (stereo unspecified),-12.2,,
CO/N=C/C(=N\Nc1ccc(C)cc1)C(=O)c1ccc(OC)cc1,2,"1.64 µM [rising, partial curve]","0.731 µM [rising, full curve]"
O=C(NC(=S)Nc1ccc2oc(=O)ccc2c1)c1ccc(-c2cccc(Cl)c2Cl)o1,,"6.51 µM [rising, single point]",
Cc1cc(NCCCOC(C)C)n2c(nc3ccccc32)c1C#N,-16.1,,"0.82 µM [falling, full curve]"
CN(CC(=O)Nc1cccc(F)c1)C(=O)c1ccccc1Sc1ccccc1C#N,-26.6,,"20.6 µM [falling, single point]"

SMILES,cell number change [%],AC50 [1],AC50 [2]
O=C(CN(C(=O)CCC(=O)Nc1nccs1)c1ccc(F)cc1)NCc1ccc(F)cc1,-14.1,,
COc1cc2[nH]c3c(=O)n(CCN(C(C)C)C(C)C)cnc3c2cc1OC,1.88,,"0.00461 µM [falling, full curve, poor fit]"
CCC(=O)N1CCCc2ccccc21,-10.5,,"23.1 µM [falling, single point]"
CC(NC(=O)C1CCC1)c1ccc(Br)cc1 (stereo unspecified),7.3,,"0.259 µM [rising, partial curve, poor fit]"
CCOc1ccc(NC(=O)CSc2ccc(-c3cccnc3)nn2)cc1,15,,"5.17 µM [rising, full curve]"
CCn1c(=O)c(C(=O)NNC(=O)Cc2ccccc2)c(O)c2ccccc21,,,"29.1 µM [rising, single point]"
CCOC(=O)c1[nH]c(CSc2nnc(-c3ccc(OC)cc3)o2)c(C(=O)OCC)c1C,-8.2,,"2.06 µM [rising, partial curve]"
c1coc(Cn2c(-c3ccco3)nc3ccccc32)c1,13.3,,"7.31 µM [rising, partial curve, poor fit]"
CC(C)=CC(=O)Nc1c(C)cc(C)cc1Cl,-11.4,,"4.11 µM [falling, full curve]"
Cc1ccc(NC(=S)Nc2ccc(OC(F)F)c(Cl)c2)cc1F,-49.6,"29.1 µM [falling, single point]","8.2 µM [falling, partial curve]"
CCCOc1ccc(C2(C(=O)O)CCCC2)cc1,-13,"5.8 µM [falling, single point]",
COc1ccc(NC(=O)COC(=O)C23CC4CC(CC(Cl)(C4)C2)C3)c(OC)c1,-21.5,,"29.1 µM [falling, single point]"
Cc1nnc(SCC(=O)Nc2ccc3c(c2)OCO3)s1,-2.42,,
O=C(N/N=C/c1cccc(F)c1)c1cc(-c2ccco2)nc2ccccc12,-21.7,,
CCn1c(=O)n(Cc2ccco2)c(=N)c2c3c(sc21)COC(C)(C)C3,,,"16.4 µM [rising, partial curve, poor fit]"
COc1cc2cc3c(N)c(C(=O)Nc4sc(C)c(C)c4C#N)sc3nc2cc1OC,-54.8,"13 µM [falling, partial curve]","13 µM [falling, partial curve]"
O=C(NCc1ccco1)c1cccc(F)c1,-28.5,"1.64 µM [falling, full curve, poor fit]","2.91 µM [falling, partial curve, poor fit]"
COC(=O)c1[nH]c2c(c1C)C(=O)CC(c1cccs1)C2 (stereo unspecified),-1.83,,"1.16 µM [rising, full curve]"
Cc1nc(SCC(=O)NCc2cccs2)nc(C)c1C,17.2,,"0.411 µM [rising, partial curve, poor fit]"
